# Screening data, single-dose tests

The values are deposited in ChEMBL (CHEMBL3988442, “University of Dundee, Small-Polar-MMV Screening Library” (2021)).

Results are given as percent effect.
How 0% and 100% were set is not recorded. Most values in the screen are low, and negative values occur.
Compounds were drawn at random from those tested, without regard to their results.
Two or more numbers in one place are separate tests of the same structure; such repeats can differ widely.
A dash means the value is not listed here; it may have been measured.

A: 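Whole-parasite assay of Trypanosoma brucei over 72 hours; the read-out is not stated. Compounds at 30 µM. The record gives no direction; compounds that gave an IC50 in retests scored well above the rest, so higher reads as stronger inhibition. Values scatter widely below zero; nearly all retest evidence comes from the higher of the two concentrations used. About 64,000 compounds were tested under these conditions; 1.5% (about 940) showed 50% or more at least once.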
B: 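Assay of Toxoplasma gondii numbers, read through their beta-galactosidase reporter with a colour substrate. Concentration: 10 µM. The record gives no direction; the compounds picked for IC50 retests had high values, so higher reads as fewer parasites. About 67,000 compounds were tested under these conditions; 0.38% (about 260) showed 50% or more at least once.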
C: 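Cell assay of Leishmania donovani living inside macrophages; the read-out is not stated. Concentration: 30 µM. Higher reads as stronger inhibition (inferred: compounds with an IC50 in retests scored well above the rest). About 69,000 compounds were tested under these conditions; 1.5% (about 1,000) showed 50% or more at least once.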

| # | compound | A | B | C |
|---|---|---|---|---|
| 1 | `CCN(C(=O)c1cc2c([nH]c1=O)CCCC2=O)C1CCCCC1` | -8.047 | 6.723 | 15.26 |
| 2 | `[H][C@@]12CCCCCN(C(C)=O)[C@@]1([H])[C@H](c1cccc(F)c1)CN2CCC(N)=O` | -2.862 | -9.425 | 37.68 |
| 3 | `COC(=O)[C@@H]1C[C@@H](NC(=O)CN2C(=O)N(C)Cc3ccccc32)CN1C` | -32.04 | 7.877 | 7.552 |
| 4 | `CSCC(=O)N1CCC(c2nccn2Cc2cscn2)CC1` | -38.34 | -28.14 | -20.64 |
| 5 | `COc1ccc(CN2CCc3c(nc(-c4ccccn4)[nH]c3=O)C2)cc1` | 100.8 | -38.67 | 1.407 |
| 6 | `O=C(Cc1ccccn1)N1CCC2(CC1)CN(CC1CC1)C(=O)CO2.O=C(O)C(F)(F)F` | -23.12 | -3.766 | 2.287 |
| 7 | `CCOc1ncccc1NC(=O)N1CCCC1c1cc(C)no1` (stereo not given) | -2.821 | - | 6.343 |
| 8 | `CCc1ncc(CN2CCC(O)(c3ccccc3F)CC2)cn1` | -1.769 | 1.783 | 17.23 |
| 9 | `CC1(C)CC(N(Cc2ccccc2)Cc2c[nH]cn2)CC(C)(C)N1.O=C(O)CC(O)(CC(=O)O)C(=O)O` | 9.903 | 0.3817 | 41.22 |
| 10 | `Cn1cc(CC2CCN(C(=O)NCc3cccc(C#N)c3)C2)cn1` (stereo not given) | - | -5.818 | 2.676 |
| 11 | `O=C(O)C(F)(F)F.O=C(O)C(F)(F)F.O=C(c1n[nH]c2c1CN(C1CCOC1)CC2)N1CCCC1` (stereo not given) | 8.032 | -11.72 | 18.99 |
| 12 | `O=C(O)[C@@H]1CN(Cc2ccc3nsnc3c2)C[C@H]1c1ccncc1` | -46.44 | -4.207 | 11.46 |
| 13 | `CC(C(=O)N1CCN(c2ccc(F)cc2)CC1)n1cc(Br)cn1` (stereo not given) | 3.222 | 4.916 | 49.45 |
| 14 | `COCCn1ccnc1C1CCN(Cc2ccccc2C#N)CC1` | -59.23 | 11.04 | 4.493 |
| 15 | `COCCNC(=O)C1(c2ccc(C)c(OC)c2)CCCC1` | -8.936 | -1.551 | 10.35 |
| 16 | `CS(=O)(=O)c1cncnc1C1CCCNC1.Cl` (stereo not given) | -1.663 | 6.411 | 14.63 & 19.91 |
| 17 | `O=C(C1CCCC1)N1CCC(c2ccnc(Nc3cnccn3)n2)C1` (stereo not given) | 9.82 | 12.91 | -17.22 |
| 18 | `O=C(NC1CC1)c1cccc(Oc2ccc3nncn3n2)c1` | -29.77 | 3.604 | 35.26 |
| 19 | `CN(C)S(=O)(=O)c1ccc(=O)n(CC2CCCO2)c1` (stereo not given) | -20.25 | 6.158 | 2.873 |
| 20 | `Cc1cc(C)c2c(c1)C(NC(=O)CSCc1ccncc1)CCO2` (stereo not given) | -49.53 | -24.97 | 4.705 |
| 21 | `Cc1nc(CN2CCCC(NCc3cnc(C(C)(C)C)s3)C2)no1` (stereo not given) | -11.81 | -24.73 | 9.256 |
| 22 | `[H][C@]12CC[C@]([H])(CN(C(=O)C3CCC3)C1)N(S(=O)(=O)c1cccnc1)C2` | -15.99 | -4.287 | -13.6 |
| 23 | `CCc1cnc(CNc2ccc(C(=O)NCc3ccco3)cc2C)o1` | 14.54 | 6.903 | 7.77 |
| 24 | `COCCNCc1cc2c(C)cc(C)cc2n2c(=O)n(C)nc12` | 39.03 | 9.005 | -6.363 & 13.27 |
| 25 | `Fc1ccc(-c2nnc(CN3CCCC3Cn3cncn3)o2)cc1` (stereo not given) | 22.51 | -2.118 | 23.77 |
| 26 | `CCC(NC(=O)c1cnc(-c2cccnc2)nc1)c1ccnn1C` (stereo not given) | -26.68 | 22.2 | -2.482 |
| 27 | `O=C(O)C(F)(F)F.[H][C@@]12CN(CC)C[C@]1(C(=O)NC)CCC21CCN(C(=O)NC(C)C)CC1` | -11.7 | -18.23 | 35.95 |
| 28 | `NC(=O)C1CCN(C(=O)NCc2ccc3c(c2)OCCO3)CC1` | -74.2 | -0.02959 | 15.23 |
| 29 | `O=C(NCc1nnc2n1CCCC2)N1CCc2ccccc2C1` | -2.415 | -4.893 | 24.86 |
| 30 | `Cc1cnn(-c2ccc(S(=O)(=O)N(C)CC(C)(CO)CO)cc2F)c1` | -109 | -6.559 | -120.1 |
| 31 | `CO[C@H]1COCCN(C(=O)c2cc(C)oc2C(F)(F)F)C1` | -11.5 | -5.277 | -7.753 |
| 32 | `COc1ccc(C)cc1-n1cnnc1CC1CCNCC1` | -28.16 | 1.69 | 0.8908 |
| 33 | `CC(C)(C)c1coc([C@@H]2COCCN2Cc2csnn2)n1` | 5.677 | 14.01 | 28.16 |
| 34 | `Cc1csc(NC(=O)CN2CCC(c3ccnn3CCO)CC2)n1` | 8.874 | - | 45.31 |
| 35 | `COc1c(C2CCCN2CC(=O)N(C)Cc2ccco2)c(C)nn1C` (stereo not given) | -20.99 | 3.147 | 28.3 |
| 36 | `Cc1ncc2c(n1)CCN(CCCc1nc3ccccc3o1)C2` | -10.49 | 0.797 | -25.72 |
| 37 | `CN(C)c1cccc(CNC(=O)Nc2ccc3[nH]nnc3c2)n1` | 3.786 | -0.3157 | 24.77 |

Repeated from the top, 5 entries:

compound	A	B	C
CCN(C(=O)c1cc2c([nH]c1=O)CCCC2=O)C1CCCCC1	-8.047	6.723	15.26
[H][C@@]12CCCCCN(C(C)=O)[C@@]1([H])[C@H](c1cccc(F)c1)CN2CCC(N)=O	-2.862	-9.425	37.68
COC(=O)[C@@H]1C[C@@H](NC(=O)CN2C(=O)N(C)Cc3ccccc32)CN1C	-32.04	7.877	7.552
CSCC(=O)N1CCC(c2nccn2Cc2cscn2)CC1	-38.34	-28.14	-20.64
COc1ccc(CN2CCc3c(nc(-c4ccccn4)[nH]c3=O)C2)cc1	100.8	-38.67	1.407